The values that follow come from publication PMC7404097.

Protein sequences, listed by entry. Tags and fused reporters are not part of them. Lines headed by an entry give the natural chain unless they say otherwise; changes in a name come on top.
UniProt P30550: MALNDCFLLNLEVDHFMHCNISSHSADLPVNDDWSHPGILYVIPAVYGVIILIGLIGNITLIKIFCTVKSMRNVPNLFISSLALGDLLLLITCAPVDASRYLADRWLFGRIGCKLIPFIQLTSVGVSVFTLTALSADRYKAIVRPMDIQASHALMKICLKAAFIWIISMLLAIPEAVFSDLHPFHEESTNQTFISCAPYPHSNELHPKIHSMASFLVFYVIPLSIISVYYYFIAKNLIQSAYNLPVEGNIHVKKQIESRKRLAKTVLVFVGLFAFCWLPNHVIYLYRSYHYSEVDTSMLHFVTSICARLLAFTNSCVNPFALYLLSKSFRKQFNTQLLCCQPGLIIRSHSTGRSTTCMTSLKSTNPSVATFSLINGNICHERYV
UniProt P49407: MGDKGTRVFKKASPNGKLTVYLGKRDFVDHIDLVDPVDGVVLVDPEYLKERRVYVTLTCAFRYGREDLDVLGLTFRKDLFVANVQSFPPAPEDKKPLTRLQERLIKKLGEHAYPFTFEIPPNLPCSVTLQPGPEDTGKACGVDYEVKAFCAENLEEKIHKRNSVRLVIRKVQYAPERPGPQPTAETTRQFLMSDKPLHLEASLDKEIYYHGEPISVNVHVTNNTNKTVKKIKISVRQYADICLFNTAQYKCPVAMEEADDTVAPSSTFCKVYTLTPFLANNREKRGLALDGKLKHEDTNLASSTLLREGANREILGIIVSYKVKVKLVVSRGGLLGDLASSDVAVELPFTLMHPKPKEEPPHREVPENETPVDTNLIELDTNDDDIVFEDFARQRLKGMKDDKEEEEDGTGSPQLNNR

This assay has as its target GRPRΔC-11S (C-tail truncated GRPR with 11S) (UniProt P30550). Put plainly: split reporter; direct assay: GPCR-11S and 114-arrestin co-expressed in live HEK293 cells (transient transfection, MultiPrime plasmid or baculovirus); 10 min baseline, then 1 µM agonist (isoproterenol, DOTA-TOC, AMBA) or 485 nm light for rhodopsin; furimazine luminescence over time.

No constants are given. Whether binding was seen depends on the method and setting. Binding seen in cells or lysates may run through a third protein. A result given as binding can be weak or reduced; the word gives no strength.

Regarding “114-β-arrestin-2 (β-arrestin-2 with the small NanoLuc subunit 114 at its N-terminus) (from UniProt P32121 1-409)”, the binding entry is reported as “binds”.
The result for “114-β-arrestin-1 (β-arrestin-1 with the small NanoLuc subunit 114 at its N-terminus) (from UniProt P49407 1-418)” reads “binds”.
